Data taken from PubChem BioAssay (NCATS).
The shares of active, inactive and inconclusive entries below differ from those in the screen. For part of these data: A potency beside an inconclusive call is a rough fit, not a confirmed value. The source made the active and inactive calls. The call rests on the fitted dose curve; in most records, active means well fitted inhibition curve with a large enough effect; inconclusive means small, poorly fitted or top-dose-only effect; inactive means no such curve, though single readings can be large or run the other way.

biological target: Aldehyde dehydrogenase 1A1 (Homo sapiens) (UniProt P00352); assay: qHTS for Inhibitors of the Aldehyde Dehydrogenase Family (ALDH1A1) Confirmatory screens (AID 2061316); details: ALDH inhibition qHTS; activity change, negative = inhibition: at 47.3 µM (top of the series); series mostly up to 47.3 µM; further: nearly all actives have a fitted effect of over 65% in size; on activity change, negative = inhibition: on the % scale 0 is the no-effect control and ±100 the full control effect
Potency means the concentration at half of the fitted maximal effect.

Structure (SMILES)	outcome	activity change, negative = inhibition	Potency
COc1cccc(-c2no[n+]([O-])c2C#N)c1	inactive	–	–
CCOC(=O)c1c(C)n(-c2ccc(OC)cc2)c2ccc(OC(=O)COc3ccccc3)cc12	–	inactive: 5.97%	–
COc1cccc(OC)c1C1=Nn2c(nnc2-c2ccccc2C)SC1	–	–	inconclusive: 10.1 µM [inhibitor, partial curve]
Cc1ccc(OCCn2c(CCNC(=O)c3cccc(Cl)c3)nc3ccccc32)cc1	–	–	inconclusive: 12.7 µM [inhibitor, partial curve]
C[C@@H]1O[C@@H](O[C@H]2[C@H](O[C@H]3CO[C@@H](O[C@H]4CC[C@@]5(C)C(CC[C@]6(C)C5CC[C@]57OC[C@@]8(CC[C@](C)(CO)CC85)[C@H](O)C[C@]76C)C4(C)C)[C@H](O[C@@H]4O[C@H](CO)[C@@H](O)[C@H](O)[C@H]4O)[C@H]3O)O[C@H](CO)[C@@H](O)[C@@H]2O)[C@H](O)[C@H](O)[C@H]1O (some centres not stated)	–	inactive: -22.4% [at 10 µM]	–
O=C(OCC1=C[C@@H](O)[C@@H]2C=CO[C@@H](O[C@@H]3O[C@H](CO)[C@@H](O)[C@H](O)[C@H]3O)[C@H]12)c1ccc(O)cc1	–	–	inconclusive: 5.51 µM [inhibitor, partial curve]
CC1(C)C[C@H]2C=C(C=O)[C@]3(C(=O)O)C[C@]3(C)[C@H]2C1	–	inactive: -19.1%	–
CN1CCC2(CCN3CCc4c(oc5ccccc45)C3C2)N(C)C1=O (configuration not stated)	–	inactive: -15%	–
O=C(NC1CCCc2c1cnn2-c1ccc(F)cc1F)c1ccncc1 (configuration not stated)	–	–	inconclusive: 17.9 µM [inhibitor, partial curve]

tested on: not listed separately; assay: BET inhibitor-based combinations targeting novel dependencies in MECOM-rearranged (r) AML: HNT-34 cell line (AID 2202234); details: HNT-34 AML viability, CellTiter-Glo luminescence, 48 h; series mostly up to 46 µM; viability (% of control): at the top concentration; further: nearly all actives have a fitted effect of over 35% in size;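 on viability (% of control): plate controls were vehicle wells for no effect and cell-free wells for full effect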
Outline: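 Seeding density was 500 cells/well, and drug exposure lasted 48 hr under standard culture conditions. Read-out used CellTiter-Glo reagent with a 15 min room-temperature incubation before luminescence measurement; AUC and Z-AUC summarize the normalized responses.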

Structure (SMILES)	viability (% of control)	Potency
O=C1C(c2c(O)[nH]c3ccccc23)=Nc2ccccc21	inactive: 97.7%	–
O=Nc1c(-c2c(O)[nH]c3cc(Br)ccc23)[nH]c2ccccc12	–	active: 2.63 µM
C=CC(=O)Nc1cccc(Nc2nc(Nc3ccc(Oc4ccnc(C(=O)NC)c4)cc3)ncc2F)c1	–	active: 8.33 µM
